# Reference: the supplement of paper PMC9744312
# Counter-ions that a name gives are not always drawn. The list shows a part of the results. This is a noisy data set.
# Test system: Peyronie's disease tunica albuginea primary fibroblasts
# Test: cell viability (DRAQ5 nuclear stain) relative to TGF-beta1-only control; higher = more viable cells
# Details: 10 µM; TGF-beta1 10 ng/mL; 72 h
row,SMILES,cell viability [%]
1,O=NN(CCCl)C(=O)NCCCl [Carmustine],90
2,CCOC(=O)c1ncn2c1CN(C)C(=O)c1cc(F)ccc1-2 [Flumazenil],87.9
3,Cc1cc(C)c2c(c1)[C@@H](N(Cc1cc(C(F)(F)F)cc(C(F)(F)F)c1)c1nnn(C)n1)CCCN2C[C@H]1CC[C@H](C(=O)O)CC1,85.3
4,COc1cc(C(C)=O)ccc1OCCCN1CCC(c2noc3cc(F)ccc23)CC1 [Iloperidone],86.4
5,CCCC1O[C@@H]2C[C@H]3[C@@H]4CCC5=CC(=O)C=C[C@]5(C)[C@H]4[C@@H](O)C[C@]3(C)[C@]2(C(=O)CO)O1 (some centres not stated) [Budesonide],82.8
6,CCOc1ccc(Cc2cc([C@]34OC[C@](CO)(O3)[C@@H](O)[C@H](O)[C@H]4O)ccc2Cl)cc1 [Ertugliflozin],84.4
7,Cc1cccc(C)c1N(CC(=O)Nc1ccc(-c2ncon2)cc1)C(=O)C1CCS(=O)(=O)CC1 [Amenamevir],101
8,CCCCC(CC)COC(=O)C=Cc1ccc(OC)cc1 (configuration not stated) [Octinoxate],90.8
9,CC(C)NCC(O)c1ccc(O)c(O)c1 (configuration not stated) [Isoprenaline HCl],96.7
10,COc1ccc2[nH]c([S@@+]([O-])Cc3ncc(C)c(OC)c3C)nc2c1 [NEXIUM (esomeprazole magnesium)],79.5
11,COc1ccc2[nH]c([S@@+]([O-])Cc3ncc(C)c(OC)c3C)nc2c1 [Esomeprazole sodium],94.2
12,CCCCOC(=O)c1ccccc1Nc1cccc(C(F)(F)F)c1 [Ufenamate],122
13,COc1ccc(C(=O)c2ccccc2)c(O)c1 [Oxybenzone],112
14,COc1ncnc(NS(=O)(=O)c2ccc(N)cc2)c1OC [Sulfadoxine],88
15,CC(=O)OCC(=O)[C@@]1(O)[C@H](C)C[C@H]2[C@@H]3CCC4=CC(=O)C=C[C@]4(C)[C@@]3(F)[C@@H](O)C[C@@]21C [Dexamethasone Acetate],70.4
16,COc1ccc(C(=O)CC(=O)c2ccc(C(C)(C)C)cc2)cc1 [Avobenzone],87.8
17,CCOC(=O)C1=C(C)NC(C)=C(C(=O)OCC)C1c1ccccc1/C=C/C(=O)OC(C)(C)C [Lacidipine],85.1
18,CCc1ccc(Cc2ccc3c(c2)[C@]2(OC3)O[C@H](CO)[C@@H](O)[C@H](O)[C@H]2O)cc1 [Tofogliflozin(CSG 452)],95.2
19,CCOc1cc(CC(=O)N[C@@H](CC(C)C)c2ccccc2N2CCCCC2)ccc1C(=O)O [Repaglinide],93.7
20,CN[C@@H]1[C@@H](O)[C@@H](O[C@@H]2[C@@H](O)[C@H](O[C@H]3O[C@H](CN)[C@@H](O)[C@H](O)[C@H]3O)[C@@H](N)C[C@H]2NC(=O)[C@@H](O)CN)OC[C@]1(C)O [Isepamicin Sulphate],95.7
21,C#C[C@]1(O)CC[C@H]2[C@@H]3CCc4cc(O)ccc4[C@H]3CC[C@@]21C [Ethinyl Estradiol],82.3
22,Cc1occc(=O)c1O [Maltol],93

# 4 consecutive entries out of the list so far:
row,SMILES,cell viability [%]
4,COc1cc(C(C)=O)ccc1OCCCN1CCC(c2noc3cc(F)ccc23)CC1 [Iloperidone],86.4
5,CCCC1O[C@@H]2C[C@H]3[C@@H]4CCC5=CC(=O)C=C[C@]5(C)[C@H]4[C@@H](O)C[C@]3(C)[C@]2(C(=O)CO)O1 (some centres not stated) [Budesonide],82.8
6,CCOc1ccc(Cc2cc([C@]34OC[C@](CO)(O3)[C@@H](O)[C@H](O)[C@H]4O)ccc2Cl)cc1 [Ertugliflozin],84.4
7,Cc1cccc(C)c1N(CC(=O)Nc1ccc(-c2ncon2)cc1)C(=O)C1CCS(=O)(=O)CC1 [Amenamevir],101
